Test results taken from publication PMC11944387, “Cannabidiol-Based Thiosemicarbazones: A Preliminary Study Evaluating Their Anti-Tyrosinase Properties” (Molecules, 2025).

Each molecule was assayed on mushroom TYR (assay: Fluorescence quenching assay of TYR). Conditions: static quenching, double-log equation; 310 K.
Format: binding, Agaricus bisporus
Procedure: The fluorescence quenching spectra were recorded with an excitation wavelength (λex = 280 nm) and excitation and emission slit widths of 5 nm. A potassium phosphate buffer (80 μL, 50 mM, pH 6.8), 20 μL of tyrosinase (100 units/mL), and 2 μL of the tested compounds (10–100 μM) dissolved in DMSO were added to 96-well plates. After incubating at 37 °C for 20 min, the fluorescence spectrum was recorded at an emission range from 315 to 415 nm. Fluorescence quenching is described by the Stern–Volmer equation [69]: F0/F=1+Kqτ0[Q]=1+ksv[Q]
For the static quenching interaction, the binding affinity (Ka) and the number of binding sites (n) between the inhibitor and TYR were determined using the following calculations:(1) logF0−F/F=nlogQ+logka where F and F0 represent the fluorescence intensities of protein in the presence and absence of a quencher, respectively. [Q] is the quencher concentration. Ksv is the Stern–Volmer quenching constant, and kq is the rate constant of the bimolecular quenching process. τ0 is the average fluorescence lifetime of the fluorophores in the absence of the quencher, with a typical value of 10^−8 s for biological macromolecules.

| SMILES | n (number of binding sites) |
| --- | --- |
| C=C(C)[C@@H]1CCC(C)=C[C@H]1c1c(O)cc(CCCCC)c(/C=N/NC(N)=S)c1O [Compound 5, 3-thiosemicarbazone–CBD–aldehyde] | 1.05 |
| C=C(C)[C@@H]1CCC(C)=C[C@H]1c1c(O)cc(CCCCC)c(/C=N/NC(=S)NC)c1O [Compound 6, 3-(4-methyl-3-thiosemicarbazone)–CBD–aldehyde] | 1.08 |
| C=C(C)[C@@H]1CCC(C)=C[C@H]1c1c(O)cc(CCCCC)c(/C=N/NC(=S)N(C)C)c1O [Compound 7, 3-(4,4-dimethyl-3-thiosemicarbazone)–CBD–aldehyde] | 0.92 |
| C=C(C)[C@@H]1CCC(C)=C[C@H]1c1c(O)cc(CCCCC)c(/C=N/NC(=S)Nc2ccccc2)c1O [Compound 8, 3-(4-phenyl-3-thiosemicarbazone)–CBD–aldehyde] | 1.19 |
| C=C(C)[C@@H]1CCC(C)=C[C@H]1c1c(OC)cc(CCCCC)c(/C=N/NC(N)=S)c1OC [Compound 9, 3-thiosemicarbazone–CBD–dimethylether] | 1.01 |
